From patent US20250206732A1, “COMPOUNDS AND METHODS FOR THE TARGETED DEGRADATION OF KRAS” (Arvinas Operations, Inc., priority 2022, published 2025)

By UniProt entry, the sequences of proteins in these tests, tags left out. Residues count along the entry.
UniProt P01116, 1-188 isoform 2 G12D: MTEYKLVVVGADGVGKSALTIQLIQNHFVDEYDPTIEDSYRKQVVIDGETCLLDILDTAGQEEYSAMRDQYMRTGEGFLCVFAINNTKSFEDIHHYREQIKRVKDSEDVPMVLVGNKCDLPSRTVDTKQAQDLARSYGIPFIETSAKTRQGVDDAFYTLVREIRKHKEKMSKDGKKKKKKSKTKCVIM

Target: AsPC-1 HiBiT-KRASG12D (Homo sapiens, UniProt P01116, G12D)
Assay: HiBiT degradation assay (G12D), AsPC-1 HiBiT-KRASG12D cells
Details: for AsPC-1 HiBiT-KRASG12D DMax: 24 hours treatment, maximum degradation observed
[1] = read-out: AsPC-1 HiBiT-KRASG12D DC50, 24 hours treatment, HiBiT luminescence

| Compound | AsPC-1 HiBiT-KRASG12D DMax | DC50 [1] [nM] | AsPC-1 HiBiT-KRASG12D DMax (tested form: formic acid salt) | DC50 (read-out: AsPC-1 HiBiT-KRASG12D DC50, 24 hours treatment, HiBiT luminescence, tested form: formic acid salt) [nM] |
| --- | --- | --- | --- | --- |
| CCc1cccc2cc(O)cc(-c3ncc4c(N5CC6CCC(C5)N6)nc(OCCN5CCC(CN6CCN(CC(=O)N[C@H](C(=O)N7C[C@H](O)C[C@H]7C(=O)N[C@@H](C)c7ccc(-c8scnc8C)cc7)C(C)(C)C)CC6)CC5)nc4c3F)c12 | A (80% < A ≤ 100%) | < 600 | – | – |
| C#Cc1c(F)ccc2cc(O)cc(-c3ncc4c(N5CC6CCC(C5)N6)nc(OCCN5CCC(F)(CN6CCN(c7cnc(C(=O)N[C@H](C(=O)N8C[C@H](O)C[C@H]8C(=O)N[C@@H](C)c8ccc(-c9scnc9C)cc8)C(C)(C)C)cn7)CC6)CC5)nc4c3F)c12 | A (80% < A ≤ 100%) | < 600 | – | – |
| CCc1cccc2cc(O)cc(-c3ncc4c(N5CC6CCC(C5)N6)nc(OC[C@@H]5CC[C@@H](COC(=O)N6CCC(Oc7cc([C@H](C(=O)N8C[C@H](O)C[C@H]8C(=O)N[C@@H](C)c8ccc(-c9scnc9C)cc8)C(C)C)on7)CC6)N5C)nc4c3F)c12 | – | – | A (80% < A ≤ 100%) | < 600 |

Where two headings read alike, the source gives them in different places. Structures were worked out from names or drawings and are uncertain.
